Assay results: US11730769B2, “Compositions and methods for Williams Syndrome (WS) therapy” (MASSACHUSETTS INSTITUTE OF TECHNOLOGY, priority 2017, dated 2023)
Where two headings read alike, the source gives them in different places.

Amino acid sequences for entries named in this document (tags omitted).
UniProt P10635, whole entry: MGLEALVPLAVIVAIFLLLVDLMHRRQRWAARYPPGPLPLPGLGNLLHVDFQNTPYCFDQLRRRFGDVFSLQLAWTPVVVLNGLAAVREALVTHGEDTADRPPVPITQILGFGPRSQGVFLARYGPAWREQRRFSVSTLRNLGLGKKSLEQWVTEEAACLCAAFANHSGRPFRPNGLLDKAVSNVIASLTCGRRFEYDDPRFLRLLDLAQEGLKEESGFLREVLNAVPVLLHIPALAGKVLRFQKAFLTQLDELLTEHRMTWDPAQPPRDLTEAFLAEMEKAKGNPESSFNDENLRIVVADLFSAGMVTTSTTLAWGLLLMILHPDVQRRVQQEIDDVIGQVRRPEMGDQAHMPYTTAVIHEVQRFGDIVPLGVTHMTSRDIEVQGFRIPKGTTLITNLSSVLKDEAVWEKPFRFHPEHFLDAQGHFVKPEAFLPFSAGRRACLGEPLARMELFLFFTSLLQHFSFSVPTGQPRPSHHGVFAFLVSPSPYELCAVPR

Assays:
cytochrome P450 CYP2D6 = cytochrome P450 CYP2D6 (Homo sapiens, UniProt P10635); settings: cited from earlier work
Gtf2i cKO mice [1] = settings: clemastine 10 mg/kg daily for 14 days, cKO mice vs cKO vehicle
Gtf2i cKO mice [2] = test: Three-chamber social preference test; format: in vivo; settings: clemastine 10 mg/kg daily for 14 days
Procedure: Stranger mice were wildtype S129 Sv males (Jackson Laboratory) with matched age and body weight to test mice. Stranger mice were habituated by placing them inside an inverted wire cup for 30 min, two sessions per day for three consecutive days before tests. Each stranger mouse was used a maximum of two times per day. The social test apparatus was made of a clear Plexiglas box (65 cm (L)×44 cm (W)×30 cm (H)) with a removable floor and partitions dividing the box into left, center, and right chambers. The center chamber (21 cm×22 cm) was half the width of the left and right chambers (each is 21 cm×44 cm). These three chambers were interconnected with 5 cm openings between each chamber that could be closed or opened manually with a lever-operated door. The inverted wire cups containing the stranger mice were cylindrical, 10 cm in height, with a bottom diameter of 10 cm and with metal bars spaced 0.8 cm apart. A weighted cup was placed on top of the inverted wire cups to prevent the test mice from climbing onto the wire cup. […] Then, experimenter blinded to genotypes analyzed for timespent in close proximity to the stranger mouse or object was analyzed using the Noldus Ethovison XT software. Social preference index was calculated as follows: (time in close interaction with stranger)/(time in close interaction with object). […]

[3] = absorbed from the gastrointestinal tract; cited from earlier work

CN1CCCC1CCOC(C)(c1ccccc1)c1ccc(Cl)cc1 (stereo not drawn) [Clemastine]
Inhibition of cytochrome P450 CYP2D6 (cytochrome P450 CYP2D6): inhibitor | Myelin thickness as g ratio in CC midline (Gtf2i cKO mice [1]): significantly reduced g ratio | Myelin thickness as g ratio in CC midline (Gtf2i cKO mice [1]; listed as clemastine): significantly decreased g ratio | Social preference index, three-chamber test (Gtf2i cKO mice [2]): normalize | Social preference index, three-chamber test (Gtf2i cKO mice [2]; listed as clemastine): decreased and normalized to control levels | Time to peak plasma concentrations [3]: 2 to 4 h
